Experimental data taken from PMC6923684.
Construct, isoform or probe ends are uncertain for at least one entry.

Molecular target: rTP05746 (Zn2Cys6 transcription factor) (Talaromyces pinophilus) (UniProt A0A3G2KS50)
Assay: EMSA
Details: salmon sperm DNA, about 50 ng probe, 0-2.0 ug rTP05746, binding buffer of Liao et al. 2018 (composition, salt and pH not given), sheared salmon sperm DNA, 25 C, 20 min, recombinant protein, residues 1-333, protein details: Trx-His-S (pET32a), probe letters rebuilt from the primers and the genome

Row | Sequence | binding result (label: FAM) | binding result (label: FAM (printed TAM in Table S1))
1 | TTTGTCGATTGCTTCTGACTGTTGCGGTTGATAGTGCCTAATTCTTCAAGGGAAACACCACCATTATATAGTGCTAAACTTGCATTCCATAGCTAGACAAAAATAATAAGAGCTAAGAACTATCTCCTCATCATTACGAGTGTTTTTCTTCATAATCGCGGTACCGCGGAATGTCGGGGCGCGATAGAAGGCGGATGAAGGCACAGCGTTACAGTATCGGCGTATGTGGCTTCATACCAATTTCACTCATAATCGACCTTCAGCCTCTGCCATCCAGACGAAAGTCATTAAACGAAATTATGGTATGTTTTAGCTCGGGTAAGTGTTTTAGCCCCTCAAAGTCCCTGATCTATACGTCCATCTGCCGGAAGCTGCATCTCAAGGACTTGCATTATGCAGGAGCCTACCATATTAATTGGAGTCGATTTGCCGGGAATGACAACACATGAACATCAACAGGGAAAGCAACATTCCCCACGTGCTGTTTTGTAGTGACCGCGGAGGACATGAACATTGACCGACACCCTTTGCTGCGCGCTTGCTAAGCTGACAATGGCCCAACCTTGTTGTGAAAAGAGAGAGATAAACCTACCAGACCCAAGCCTGCAAGATTGCGGAGAACATGAGAAAACTGACTAATTTAAAATTGTGTTGCTCCCTCACTCTCCGCATCTCCGCGATTGATATTCAGGACCATATGCGGGGTTTGTTCCAATTGGCTCGGCATCGGCAGATGAGAATGAGAAGAAACACTCTTTCAACCACGAAGATCAGTTACGTATGTAGTATACGTTTTCAGACACCGGAGAAATTGGCATAATGAATGATCTGGCTTATCTATCCGGATGAGCCTTTTATCGACTGTCGTCAAGTCGACAGCAATGAAGATACATATTTCCGAAATTGGGAATAGCCTCAACGGCATTGTTCCGACATTCATATAGCCTAATAAGGCAAAACTTTCGATCTC (double strand) [TP09412/cbh1 promoter] | binds | 
2 | CGAATGGCAACTCTGGCACCATTAGCTTCATGTTTCGTCTTCGATTCTATATCCGGGGAAGAAGACCTCCTATCGATCCACATTGCTCGGTGATACGACAAGCGCGAAGGAAGGAGTAATGTACAAAAACAGAAGTGAGAAAGTATAGTTCACAATTCTGGCATTGAATCTTTGAAAGCAAGAAAGAAGGCGTTGTCAAGATCCAATTCACCAGCCGATATTCCCCGGGTTCTTCTTGACTTCTCAATGCCGCCTGAGGGCGCCACCAATGTTTCAAAGTGTTCTTCTAAATAAGATTAAGCATAAAAAGGACACGATGTAACTGGTCAGCCTCGATCGGCAAATTAATCGGTTAAAACACCTGCGTAGAACATCACTAGTACCTGCAGTAGCCCCTCTAAATCATTCTTCAACCCACCCTGCAGAGAAAGGAGAAAAACCAGCAACCCACAATGATGCATTGAACCTGGCCAAAGAGAGCCTGTTTTAATGTATACCTCTGCAGTAATGCCGACCATCGAATTTCTAATAGGTGGAAAGTCTTAGGCTACATGGCCAGGGCTACATTTCATGTGATCTTCTGCCTATTTCATGTGTCCCCGTAACCCCAAAGCCTCGCGGAGGCCGTGGATAGAATTGAATTAATTTCCTTTACCAAAACGCCTTCTTCGTTCCTCGCTCATTTCGTTTCATCAAATCGAATGCATTTCCCGGATTGCTTCCCCGCACATTTCGCGCCTCCTATCCTAACGAAACGATATCGCGGAAGTTCGGTGAAAAGATACAGATAGATATATGAATATCGTTTCTGTTATATTGCTCCGCATAGGTTCAAGGGTATATAAACAGGCTTACTGTCTAATAATCTCAATAACTGCTCAAATCCATTGTTTGTCCTTCTTCGTACCTGCGGCGAGATTCAATTTTGGACTGATGTCTAACATGGCGAC (double strand) [TP08514/eg1 promoter] |  | binds
